Values from PubChem BioAssay AID1259405 (NCATS, 2018).
The deposit covers about 50,000 reagents; below is a part drawn at random. Over the whole deposit, about 4,000 (8%) were called active. 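Mouse siRNA library applied to hamster cells; one well for each siRNA.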 A number with no mark means an inactive call. Reagents against one gene are numbered here.

Assay: 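Mouse-designed siRNAs used to find CHO productivity engineering targets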 (primary screen)
System: Chinese hamster CHO-K1 ovary cells with stable secreted eGFP expression
Reagent: single siRNA against mouse genes, 0.8 pmol siRNA per well (2 µl of 400 nM stock)
Timing: 3 days
Detection: 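Per-well intracellular GFP measured by laser scanning cytometry, plus viability from ATP luminescence, each relative to plate median of non-targeting control wells, in %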
Direction: GFP, % of control: higher = more GFP per well, higher productivity; viability (ATP), % of control: higher = more viable cells (more ATP)
Call rule: 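Called active when intracellular GFP, relative to negative control, is at or above 120%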

| Target gene | reagent no. | GFP, % of control | viability (ATP), % of control |
| --- | --- | --- | --- |
| Ppm1h (protein phosphatase 1H (PP2C domain containing)) | 1 | 79.1 | 56.6 |
| Ppm1h (protein phosphatase 1H (PP2C domain containing)) | 2 | 84.5 | 50.4 |
| Ppm1h (protein phosphatase 1H (PP2C domain containing)) | 3 | 87 | 63.1 |
| Msx1 (msh homeobox 1) | 1 | 89.9 | 67.5 |
| Msx1 (msh homeobox 1) | 2 | 104 | 91.9 |
| Msx1 (msh homeobox 1) | 3 | 86 | 58.9 |
| Itgav (integrin alpha V) | 1 | 65.7 | 60.5 |
| Itgav (integrin alpha V) | 2 | 144 (active) | 101 |
| Slitrk6 (SLIT and NTRK-like family, member 6) | 1 | 77.6 | 73.8 |
| Slitrk6 (SLIT and NTRK-like family, member 6) | 2 | 84.7 | 97 |
| Slitrk6 (SLIT and NTRK-like family, member 6) | 3 | 75.5 | 70.6 |
| Ciao1 (cytosolic iron-sulfur protein assembly 1) | 1 | 60.1 | 47.6 |
| Ciao1 (cytosolic iron-sulfur protein assembly 1) | 2 | 83.6 | 87.5 |
| Ciao1 (cytosolic iron-sulfur protein assembly 1) | 3 | 90.3 | 103 |
| Col2a1 (collagen, type II, alpha 1) | 1 | 65.4 | 54.6 |
| Col2a1 (collagen, type II, alpha 1) | 2 | 110 | 99.8 |
| Col2a1 (collagen, type II, alpha 1) | 3 | 109 | 72.8 |
| Ube2l3 (ubiquitin-conjugating enzyme E2L 3) | 1 | 96.8 | 86.3 |
| Ube2l3 (ubiquitin-conjugating enzyme E2L 3) | 2 | 107 | 88.2 |
| Ube2l3 (ubiquitin-conjugating enzyme E2L 3) | 3 | 81.2 | 92.3 |
| Rnf227 (ring finger protein 227) | 1 | 81 | 56.9 |
| Rnf227 (ring finger protein 227) | 2 | 66.8 | 40.5 |
| Rnf227 (ring finger protein 227) | 3 | 66.5 | 95.3 |
| Zscan4c (zinc finger and SCAN domain containing 4C) | 1 | 50.2 | 44 |
| Zscan4c (zinc finger and SCAN domain containing 4C) | 2 | 42.2 | 61.9 |
| Zscan4c (zinc finger and SCAN domain containing 4C) | 3 | 94.7 | 72.9 |
| Lipf (lipase F, gastric type) | 1 | 105 | 79.6 |
| Lipf (lipase F, gastric type) | 2 | 63.4 | 74.1 |
| Lipf (lipase F, gastric type) | 3 | 54.1 | 123 |
| Txnrd1 (thioredoxin reductase 1) | 1 | 136 (active) | 86.6 |
| Txnrd1 (thioredoxin reductase 1) | 2 | 90.1 | 91.7 |
| Txnrd1 (thioredoxin reductase 1) | 3 | 92.5 | 75.6 |
| Ntsr2 (neurotensin receptor 2) | 1 | 29.7 | 57.2 |
| Ntsr2 (neurotensin receptor 2) | 2 | 77.1 | 74.6 |
| Ntsr2 (neurotensin receptor 2) | 3 | 175 (active) | 89.8 |
| Dipk1c (divergent protein kinase domain 1C) | 1 | 62.1 | 60 |
| Dipk1c (divergent protein kinase domain 1C) | 2 | 68.4 | 94.6 |
| Dipk1c (divergent protein kinase domain 1C) | 3 | 73.9 | 85.9 |
| Usp7 (ubiquitin specific peptidase 7) | 1 | 91.2 | 63.5 |
| Usp7 (ubiquitin specific peptidase 7) | 2 | 27.1 | 22.8 |
| Usp7 (ubiquitin specific peptidase 7) | 3 | 45 | 42.4 |
| Gmfb (glia maturation factor, beta) | 1 | 65.7 | 61.5 |
| Gmfb (glia maturation factor, beta) | 2 | 12.1 | 15.4 |
| Gmfb (glia maturation factor, beta) | 3 | 71.7 | 62.7 |
| Eif2b4 (eukaryotic translation initiation factor 2B, subunit 4 delta) | 1 | 33.2 | 45.4 |
| Eif2b4 (eukaryotic translation initiation factor 2B, subunit 4 delta) | 2 | 69.9 | 61.7 |
| Eif2b4 (eukaryotic translation initiation factor 2B, subunit 4 delta) | 3 | 58.2 | 49.7 |
| Grb10 (growth factor receptor bound protein 10) | 1 | 40.2 | 18.8 |
| Grb10 (growth factor receptor bound protein 10) | 2 | 62 | 61.7 |
| Grb10 (growth factor receptor bound protein 10) | 3 | 96.5 | 108 |
| Gimap5 (GTPase, IMAP family member 5) | 1 | 64.5 | 78.4 |
| Gimap5 (GTPase, IMAP family member 5) | 2 | 77.5 | 71.2 |
| Gimap5 (GTPase, IMAP family member 5) | 3 | 56.4 | 40 |
| Tex21 (testis expressed gene 21) | 1 | 65.5 | 75.7 |
| Tex21 (testis expressed gene 21) | 2 | 149 (active) | 143 |
| Tex21 (testis expressed gene 21) | 3 | 120 (active) | 149 |
| Wdr62 (WD repeat domain 62) | 1 | 44.6 | 75.3 |
| Wdr62 (WD repeat domain 62) | 2 | 44.8 | 39.6 |
| Wdr62 (WD repeat domain 62) | 3 | 49.8 | 76.3 |

Ordered by “viability (ATP), % of control” (low to high): some entries from above.
| Target gene | reagent no. | GFP, % of control | viability (ATP), % of control |
| --- | --- | --- | --- |
| Col2a1 (collagen, type II, alpha 1) | 1 | 65.4 | 54.6 |
| Col2a1 (collagen, type II, alpha 1) | 2 | 110 | 99.8 |
